# From paper PMC9800903
# Amino acid sequences for entries named in this document (tags omitted). A change or cut given only in a name is not applied to a line headed by its entry.
# UniProt O14980: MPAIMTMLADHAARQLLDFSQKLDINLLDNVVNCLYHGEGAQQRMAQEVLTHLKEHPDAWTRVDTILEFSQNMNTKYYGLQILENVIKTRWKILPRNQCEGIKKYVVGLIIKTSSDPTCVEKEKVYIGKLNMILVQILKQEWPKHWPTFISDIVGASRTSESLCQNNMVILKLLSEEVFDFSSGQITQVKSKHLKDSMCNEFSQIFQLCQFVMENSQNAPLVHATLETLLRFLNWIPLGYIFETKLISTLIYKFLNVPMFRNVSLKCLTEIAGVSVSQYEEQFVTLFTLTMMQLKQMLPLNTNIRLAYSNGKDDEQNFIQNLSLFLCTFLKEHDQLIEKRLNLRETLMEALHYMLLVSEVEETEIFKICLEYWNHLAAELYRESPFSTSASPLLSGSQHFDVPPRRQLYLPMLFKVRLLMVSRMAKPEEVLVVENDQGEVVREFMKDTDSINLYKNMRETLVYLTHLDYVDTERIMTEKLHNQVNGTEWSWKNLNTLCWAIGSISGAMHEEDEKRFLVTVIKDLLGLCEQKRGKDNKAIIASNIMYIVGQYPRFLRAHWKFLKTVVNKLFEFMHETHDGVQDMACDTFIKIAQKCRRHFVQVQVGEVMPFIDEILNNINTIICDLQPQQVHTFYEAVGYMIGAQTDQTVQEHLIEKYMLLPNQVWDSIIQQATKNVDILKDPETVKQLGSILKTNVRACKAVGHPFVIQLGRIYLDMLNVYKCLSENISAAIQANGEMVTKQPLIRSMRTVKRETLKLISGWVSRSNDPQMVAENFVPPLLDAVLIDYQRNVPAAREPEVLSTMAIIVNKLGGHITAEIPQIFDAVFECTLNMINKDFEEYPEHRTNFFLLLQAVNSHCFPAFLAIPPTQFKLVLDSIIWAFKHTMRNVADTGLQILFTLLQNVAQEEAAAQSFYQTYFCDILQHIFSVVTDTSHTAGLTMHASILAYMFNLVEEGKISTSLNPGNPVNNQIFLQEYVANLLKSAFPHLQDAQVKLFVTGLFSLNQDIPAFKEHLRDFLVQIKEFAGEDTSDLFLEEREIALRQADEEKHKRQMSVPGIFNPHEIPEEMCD
# UniProt P47813: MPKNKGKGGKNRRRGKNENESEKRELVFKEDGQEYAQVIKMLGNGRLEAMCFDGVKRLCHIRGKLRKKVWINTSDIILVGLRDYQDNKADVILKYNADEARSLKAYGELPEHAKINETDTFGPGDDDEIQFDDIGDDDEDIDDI
# These are yes or no findings as the source states them, for the method shown. In cells and extracts the contact can be indirect.
# Target: Exportin 1 (human (endogenous in HEC-1A)) (UniProt O14980)
# Experiment: co-IP; HEC-1A whole-cell lysates in RIPA lysis buffer with protease inhibitors; protein A or G magnetic beads prebound with anti-EIF1AX, anti-FLAG, anti-IPO13, anti-XPO1 or normal IgG control; western blotting
substance,measurement,value
EIF1AX-NLSmut (from UniProt P47813),binding,no binding
